# Assay: in vitro
# Conditions: human
smiles,measurement,value
CN1CCCC1CCO[C@](C)(c1ccccc1)c1ccc(Cl)cc1 (stereo partly specified),selectivity ratio,7.1

# Source: ChEMBL document CHEMBL4368861 (Medchemcomm, 2018)
